This is an account of results in patent US20130197191A1 (Amgen, published 2013).

Read-outs that look alike come from different tables or passages of the source.

Common to all, as to experiment: phage panning
One assay has as its target T1, human FGFR1c-Fc (human, UniProt P11362 22-376).
T1 construct: also called huFGFR1c-Fc; huFGFR1c/Fc
T1 sequence: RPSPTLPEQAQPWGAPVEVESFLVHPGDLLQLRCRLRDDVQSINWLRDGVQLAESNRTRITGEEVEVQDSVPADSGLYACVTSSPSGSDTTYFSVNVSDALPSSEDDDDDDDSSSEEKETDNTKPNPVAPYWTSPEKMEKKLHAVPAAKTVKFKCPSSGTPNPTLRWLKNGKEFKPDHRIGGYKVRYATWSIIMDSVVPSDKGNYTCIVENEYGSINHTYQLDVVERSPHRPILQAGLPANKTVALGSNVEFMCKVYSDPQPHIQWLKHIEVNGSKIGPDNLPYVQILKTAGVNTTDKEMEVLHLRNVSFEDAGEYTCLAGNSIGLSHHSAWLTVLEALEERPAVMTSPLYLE

Assay [1] deals with T2, recombinant human β-Klotho (human, UniProt Q86Z14 53-996, limits assumed, biotinylated in the AlphaScreen assays (site not stated)).
T2 construct: also called rhβ-klotho; huβKlotho-His
T2 sequence: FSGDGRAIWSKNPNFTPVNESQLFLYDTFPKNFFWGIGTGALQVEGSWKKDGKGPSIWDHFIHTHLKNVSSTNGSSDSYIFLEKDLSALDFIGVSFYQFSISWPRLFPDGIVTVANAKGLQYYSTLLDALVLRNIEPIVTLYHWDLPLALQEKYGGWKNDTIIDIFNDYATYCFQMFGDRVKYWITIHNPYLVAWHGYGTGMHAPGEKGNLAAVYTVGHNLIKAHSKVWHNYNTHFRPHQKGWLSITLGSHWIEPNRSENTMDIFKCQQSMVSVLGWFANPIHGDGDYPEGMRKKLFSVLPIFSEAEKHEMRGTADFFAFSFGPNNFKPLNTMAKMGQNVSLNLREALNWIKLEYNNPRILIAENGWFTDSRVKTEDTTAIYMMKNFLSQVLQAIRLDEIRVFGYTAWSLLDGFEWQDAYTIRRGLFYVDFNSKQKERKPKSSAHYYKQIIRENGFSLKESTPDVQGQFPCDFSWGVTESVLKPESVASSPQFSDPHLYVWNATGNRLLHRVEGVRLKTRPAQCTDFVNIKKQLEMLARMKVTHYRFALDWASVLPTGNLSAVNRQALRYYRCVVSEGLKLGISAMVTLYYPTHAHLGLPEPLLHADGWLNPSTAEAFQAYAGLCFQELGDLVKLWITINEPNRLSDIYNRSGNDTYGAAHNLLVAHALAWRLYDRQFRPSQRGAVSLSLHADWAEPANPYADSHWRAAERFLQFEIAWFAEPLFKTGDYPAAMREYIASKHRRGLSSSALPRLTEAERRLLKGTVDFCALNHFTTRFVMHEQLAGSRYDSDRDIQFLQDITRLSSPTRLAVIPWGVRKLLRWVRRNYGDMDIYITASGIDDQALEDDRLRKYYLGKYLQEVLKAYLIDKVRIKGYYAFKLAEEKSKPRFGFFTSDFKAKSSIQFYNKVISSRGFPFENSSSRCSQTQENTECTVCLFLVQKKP

Assay [2] addresses T2, recombinant human β-Klotho. The source holds these as a separate data set.
Assay [3] concerns the target T2, recombinant human β-Klotho. This is another data set of the same source.
The target in assay [4] is T2, recombinant human β-Klotho. The source holds these as a separate data set.
For assay [5], the target named is T2, recombinant human β-Klotho. This is another data set of the same source.

Turning to CASGQFTCRSTNICLSLAWLCDGDDDCEDNSDESPAICSAPASEPPGSL (designed binder) [FGFR1c-binding monomer M02], the binding result with human FGFR1c-Fc is given as “binds”. Same read-out and setting: for CGAGQFQCRSTNICISLKWVCDGVDDCEDNSDETSCSAPASEPPGSL (designed binder) [FGFR1c-binding monomer M05] the value was “binds”. As to CGTGQFTCRSTKICISQAWVCDGVDDCEDNSDEKNCSAPASEPPGSL (designed binder) [FGFR1c-binding monomer M30], the binding result with human FGFR1c-Fc is recorded as “binds”.

CGAGQFTCRSTKICISQAWVCDGVDDCEDNSDETSCSAPASEPPGSL (designed binder) [FGFR1c-binding monomer M11]: the binding result with human FGFR1c-Fc is “binds”.

B1: β-Klotho walked dimer bKWD13 (designed binder)
chain: CGPDEFRCNSGRCLPLDWRCDGVDDCEDGSDEAPDLCKTPARTCLPDEFQCGSGRCIPQTWVCDGLNDCGDGSDESPAHCSQDPEFHKV
As for B1, the binding result in assay [1] was “binds”.

For CRPGEFRCRSTNTCISQSLRCDGEPDCRDGSDEPEDCESVAHT (designed binder) [β-Klotho-binding monomer M16], in assay [2], the binding result is reported as “binds”.

B2: β-Klotho walked dimer bKWD23 (designed binder)
chain: CGPSQFQCSNGRCLPATWVCDGDDDCLDGSDEASATCATRTCPSNQFPCRSTGICIPLAWVCDGLNDCGDGSDESPAHCSQDPGFHKV
On to B2, for which the binding result in assay [3] is “binds”. As to CHHHHFHCLSGECINTWRCDGGPDCKDKSDEENCPTKRPEEV (designed binder) [β-Klotho-binding monomer M30], the binding result in assay [2] is reported as “binds”.

B3: β-Klotho walked dimer BK_R1c_D20 (designed binder)
chain: CPPSQFTCGNGRCVSLGWVCDGLNDCGDGSDESPALCSAPASEPPGSLCPPGQFRCNNGRCIPQPWLCDGDDDCQDNSDEENCESPGPT
Take B3: the binding result in assay [4] was “binds”.

B4: β-Klotho-binding monomer M53 (designed binder)
chain: CLPGQFRCNSGHCLSQTWVCDGYNDCGDGSDEPLATCGDSHILPFSTPGPST
Regarding B4, the binding result in assay [2] is “binds”.

B5: β-Klotho walked dimer bKWD14 (designed binder)
chain: CGPDQFRCKSGNCLPLNWVCDGVDDCGDSSDEEGCATPTCLPDEFQCGSGRCIPQTWVCDGLNDCGDGSDESPAHCSQDPEFHKV
Consider B5, for which the binding result in assay [1] is on record as “binds”. Consider CGPIQFTCRNTNICLSVHWVCDGEDDCEDGSDEEGCGRPGPGATSAPAA (designed binder) [FGFR1c-binding monomer M19], for which the binding result with human FGFR1c-Fc was “binds”.

B6: β-Klotho walked dimer bKWD17 (designed binder)
chain: CPPSQFTCGNGRCVSLGWVCDGLNDCGDGSDESPALCSAPASEPPGSLCPPDQFRCRNGRCVPLAWVCDGEDDCQDNSDETDCKRSVRT
As to B6, the binding result in assay [4] is listed as “binds”. Consider CGSNQFTCRSTNICISQAWVCDGVDDCEDDSDETGCSQDPEFHKV (designed binder, also called M23ori; R1cM23) [FGFR1c-binding monomer M23], for which the binding result (with human FGFR1c-Fc; in assay [2]) was “binds” in each case. As to CSAFEFHCLSGECIHSSWRCDWYWDCKDYWDPLVCELEA (designed binder) [β-Klotho-binding monomer M40], the binding result in assay [2] was “binds”. The same measure, in the same setting: the result for CSAFEFHCLSGECIHSSWRCDWDDDCKDWQDYVMCALEA (designed binder) [β-Klotho-binding monomer M38] reads “binds”.

B7: β-Klotho walked dimer BK_R1c_D19 (designed binder)
chain: CPPSQFTCGNGRCVSLGWVCDGLNDCGDGSDESPALCSAPASEPPGSLCAPGEFTCKSGQCIPLHWLCDGDNDCGDNSDESPATCKATVPT
On to B7, for which the binding result in assay [4] is reported as “binds”. For CGPSQFTCRNTNICISLRWRCDGVDDCEDNSDEEGCGTTGPT (designed binder) [FGFR1c-binding monomer M21], in the assay with human FGFR1c-Fc, the binding result is “binds”.

B8: β-Klotho walked dimer bKWD37 (designed binder)
chain: CLSDQFQCNNYETCIPRPWLCDGDDDCVDGSDEEDCETRTCHSFNQFECRNGQCIPLHLVCDGVPDCGDNSDETDCGDSHILPFSTPGPST
As to B8, the binding result in assay [5] was “binds”.
